Measured values from the supplement of paper PMC12067093, “Discovery and optimisation of a covalent ligand for TRIM25 and its application to targeted protein ubiquitination” (Chemical Science, 2025).
The list shows a part of the results.

Chains of the proteins cited; added tags and fusions are not shown. Lines headed by an entry give the natural chain unless they say otherwise; changes in a name come on top.
UniProt Q92947: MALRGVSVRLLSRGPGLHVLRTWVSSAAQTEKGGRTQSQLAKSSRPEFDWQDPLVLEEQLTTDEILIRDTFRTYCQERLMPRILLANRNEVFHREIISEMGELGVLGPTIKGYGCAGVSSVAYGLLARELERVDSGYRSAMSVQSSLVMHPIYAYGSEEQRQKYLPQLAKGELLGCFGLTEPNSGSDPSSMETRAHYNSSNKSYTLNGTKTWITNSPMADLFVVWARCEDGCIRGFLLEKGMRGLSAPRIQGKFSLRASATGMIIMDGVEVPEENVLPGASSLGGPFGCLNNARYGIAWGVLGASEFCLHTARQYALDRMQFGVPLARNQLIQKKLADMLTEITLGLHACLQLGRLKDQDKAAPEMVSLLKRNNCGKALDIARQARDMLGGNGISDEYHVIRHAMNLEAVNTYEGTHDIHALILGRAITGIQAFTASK
UniProt Q8IWJ2: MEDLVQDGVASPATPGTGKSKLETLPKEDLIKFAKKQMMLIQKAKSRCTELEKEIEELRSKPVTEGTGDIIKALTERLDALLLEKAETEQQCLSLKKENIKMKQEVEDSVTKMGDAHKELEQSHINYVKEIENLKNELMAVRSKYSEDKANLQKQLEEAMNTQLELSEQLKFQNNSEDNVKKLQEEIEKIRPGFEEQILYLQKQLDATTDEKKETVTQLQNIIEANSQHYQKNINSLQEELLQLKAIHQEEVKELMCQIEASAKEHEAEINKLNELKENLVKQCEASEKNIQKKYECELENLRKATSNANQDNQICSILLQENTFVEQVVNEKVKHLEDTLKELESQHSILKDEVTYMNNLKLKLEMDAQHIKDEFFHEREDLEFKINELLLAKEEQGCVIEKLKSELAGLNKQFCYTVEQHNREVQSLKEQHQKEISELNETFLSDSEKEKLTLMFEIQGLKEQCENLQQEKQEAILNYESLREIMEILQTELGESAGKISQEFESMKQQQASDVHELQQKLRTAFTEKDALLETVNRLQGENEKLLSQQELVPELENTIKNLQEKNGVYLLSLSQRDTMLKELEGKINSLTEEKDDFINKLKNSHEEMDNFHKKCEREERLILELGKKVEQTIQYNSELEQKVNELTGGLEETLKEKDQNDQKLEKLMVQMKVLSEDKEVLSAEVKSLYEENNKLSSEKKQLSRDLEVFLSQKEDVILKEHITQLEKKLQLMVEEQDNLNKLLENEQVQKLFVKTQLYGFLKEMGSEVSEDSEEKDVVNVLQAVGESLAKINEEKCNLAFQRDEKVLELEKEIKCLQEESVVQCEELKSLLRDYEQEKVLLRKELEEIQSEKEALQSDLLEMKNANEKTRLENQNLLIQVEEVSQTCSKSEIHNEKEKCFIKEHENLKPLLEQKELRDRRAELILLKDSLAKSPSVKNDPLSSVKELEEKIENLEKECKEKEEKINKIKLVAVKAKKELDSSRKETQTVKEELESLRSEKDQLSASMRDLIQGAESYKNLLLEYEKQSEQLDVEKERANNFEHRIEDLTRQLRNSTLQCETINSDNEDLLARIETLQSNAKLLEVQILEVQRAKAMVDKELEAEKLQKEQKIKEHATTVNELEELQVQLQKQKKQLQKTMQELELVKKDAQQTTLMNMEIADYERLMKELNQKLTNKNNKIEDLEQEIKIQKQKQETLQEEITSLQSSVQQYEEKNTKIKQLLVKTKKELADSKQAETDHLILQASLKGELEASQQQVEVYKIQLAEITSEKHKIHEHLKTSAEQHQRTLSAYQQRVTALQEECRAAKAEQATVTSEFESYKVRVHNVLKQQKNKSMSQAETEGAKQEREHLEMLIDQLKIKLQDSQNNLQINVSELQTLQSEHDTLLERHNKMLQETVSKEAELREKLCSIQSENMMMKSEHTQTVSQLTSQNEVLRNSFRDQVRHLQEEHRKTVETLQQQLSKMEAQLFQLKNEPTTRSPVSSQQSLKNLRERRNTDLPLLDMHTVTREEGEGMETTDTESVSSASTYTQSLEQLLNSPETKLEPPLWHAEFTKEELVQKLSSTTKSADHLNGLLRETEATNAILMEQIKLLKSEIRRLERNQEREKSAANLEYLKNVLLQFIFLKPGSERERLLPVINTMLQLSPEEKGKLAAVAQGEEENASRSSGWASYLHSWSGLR
UniProt Q96PP8: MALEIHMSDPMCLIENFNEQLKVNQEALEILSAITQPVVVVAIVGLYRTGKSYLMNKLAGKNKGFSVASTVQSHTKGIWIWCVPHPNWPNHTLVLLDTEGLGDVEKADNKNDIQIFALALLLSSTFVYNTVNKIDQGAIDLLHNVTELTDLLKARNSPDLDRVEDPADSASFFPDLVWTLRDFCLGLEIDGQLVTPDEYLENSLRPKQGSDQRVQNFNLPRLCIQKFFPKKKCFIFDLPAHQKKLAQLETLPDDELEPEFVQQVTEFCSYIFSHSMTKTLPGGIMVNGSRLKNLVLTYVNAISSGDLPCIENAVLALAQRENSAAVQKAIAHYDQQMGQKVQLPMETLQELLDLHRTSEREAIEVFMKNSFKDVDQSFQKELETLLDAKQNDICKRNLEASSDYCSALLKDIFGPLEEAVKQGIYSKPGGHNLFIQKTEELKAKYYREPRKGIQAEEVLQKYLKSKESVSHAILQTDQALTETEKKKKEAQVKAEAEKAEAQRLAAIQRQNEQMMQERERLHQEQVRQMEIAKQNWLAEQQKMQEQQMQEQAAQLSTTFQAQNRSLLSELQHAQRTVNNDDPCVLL
UniProt O75420: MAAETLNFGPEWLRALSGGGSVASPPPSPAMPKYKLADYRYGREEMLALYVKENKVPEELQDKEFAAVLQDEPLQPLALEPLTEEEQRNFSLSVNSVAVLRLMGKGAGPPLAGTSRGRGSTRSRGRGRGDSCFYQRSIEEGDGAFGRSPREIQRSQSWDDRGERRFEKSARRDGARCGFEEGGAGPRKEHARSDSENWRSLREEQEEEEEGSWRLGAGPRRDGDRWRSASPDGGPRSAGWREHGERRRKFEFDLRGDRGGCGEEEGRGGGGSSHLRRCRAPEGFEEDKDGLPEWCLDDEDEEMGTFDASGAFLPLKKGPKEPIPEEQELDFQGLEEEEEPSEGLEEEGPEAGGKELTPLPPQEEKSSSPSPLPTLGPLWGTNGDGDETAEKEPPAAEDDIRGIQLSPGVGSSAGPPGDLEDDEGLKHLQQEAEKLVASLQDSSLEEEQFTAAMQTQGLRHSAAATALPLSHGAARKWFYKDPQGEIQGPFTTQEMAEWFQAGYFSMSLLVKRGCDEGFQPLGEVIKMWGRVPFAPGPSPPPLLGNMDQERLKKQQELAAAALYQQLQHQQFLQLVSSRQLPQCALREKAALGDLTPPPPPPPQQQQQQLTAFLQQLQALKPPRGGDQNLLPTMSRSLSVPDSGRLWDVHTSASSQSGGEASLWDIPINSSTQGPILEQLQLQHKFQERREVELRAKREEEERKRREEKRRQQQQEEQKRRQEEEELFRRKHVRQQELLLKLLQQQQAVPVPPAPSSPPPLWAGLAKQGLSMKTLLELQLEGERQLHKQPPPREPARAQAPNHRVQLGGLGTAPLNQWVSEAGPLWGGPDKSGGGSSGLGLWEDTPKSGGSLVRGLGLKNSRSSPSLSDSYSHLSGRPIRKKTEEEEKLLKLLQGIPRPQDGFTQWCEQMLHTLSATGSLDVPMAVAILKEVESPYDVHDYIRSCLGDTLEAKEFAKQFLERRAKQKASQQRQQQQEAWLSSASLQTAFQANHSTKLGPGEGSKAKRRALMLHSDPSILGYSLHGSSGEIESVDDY
UniProt P31150: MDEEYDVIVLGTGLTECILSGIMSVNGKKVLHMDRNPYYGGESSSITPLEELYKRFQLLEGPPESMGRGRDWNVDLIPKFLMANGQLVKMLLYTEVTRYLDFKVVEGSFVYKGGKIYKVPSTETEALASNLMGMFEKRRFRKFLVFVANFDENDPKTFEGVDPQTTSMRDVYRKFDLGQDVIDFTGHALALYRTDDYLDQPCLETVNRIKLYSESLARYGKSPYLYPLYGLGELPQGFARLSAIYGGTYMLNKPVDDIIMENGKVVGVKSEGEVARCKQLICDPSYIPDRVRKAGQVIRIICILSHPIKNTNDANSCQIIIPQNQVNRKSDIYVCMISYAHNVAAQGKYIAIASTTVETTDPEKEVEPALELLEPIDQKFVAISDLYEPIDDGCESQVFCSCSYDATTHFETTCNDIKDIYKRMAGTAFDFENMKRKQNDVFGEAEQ
UniProt Q14C86: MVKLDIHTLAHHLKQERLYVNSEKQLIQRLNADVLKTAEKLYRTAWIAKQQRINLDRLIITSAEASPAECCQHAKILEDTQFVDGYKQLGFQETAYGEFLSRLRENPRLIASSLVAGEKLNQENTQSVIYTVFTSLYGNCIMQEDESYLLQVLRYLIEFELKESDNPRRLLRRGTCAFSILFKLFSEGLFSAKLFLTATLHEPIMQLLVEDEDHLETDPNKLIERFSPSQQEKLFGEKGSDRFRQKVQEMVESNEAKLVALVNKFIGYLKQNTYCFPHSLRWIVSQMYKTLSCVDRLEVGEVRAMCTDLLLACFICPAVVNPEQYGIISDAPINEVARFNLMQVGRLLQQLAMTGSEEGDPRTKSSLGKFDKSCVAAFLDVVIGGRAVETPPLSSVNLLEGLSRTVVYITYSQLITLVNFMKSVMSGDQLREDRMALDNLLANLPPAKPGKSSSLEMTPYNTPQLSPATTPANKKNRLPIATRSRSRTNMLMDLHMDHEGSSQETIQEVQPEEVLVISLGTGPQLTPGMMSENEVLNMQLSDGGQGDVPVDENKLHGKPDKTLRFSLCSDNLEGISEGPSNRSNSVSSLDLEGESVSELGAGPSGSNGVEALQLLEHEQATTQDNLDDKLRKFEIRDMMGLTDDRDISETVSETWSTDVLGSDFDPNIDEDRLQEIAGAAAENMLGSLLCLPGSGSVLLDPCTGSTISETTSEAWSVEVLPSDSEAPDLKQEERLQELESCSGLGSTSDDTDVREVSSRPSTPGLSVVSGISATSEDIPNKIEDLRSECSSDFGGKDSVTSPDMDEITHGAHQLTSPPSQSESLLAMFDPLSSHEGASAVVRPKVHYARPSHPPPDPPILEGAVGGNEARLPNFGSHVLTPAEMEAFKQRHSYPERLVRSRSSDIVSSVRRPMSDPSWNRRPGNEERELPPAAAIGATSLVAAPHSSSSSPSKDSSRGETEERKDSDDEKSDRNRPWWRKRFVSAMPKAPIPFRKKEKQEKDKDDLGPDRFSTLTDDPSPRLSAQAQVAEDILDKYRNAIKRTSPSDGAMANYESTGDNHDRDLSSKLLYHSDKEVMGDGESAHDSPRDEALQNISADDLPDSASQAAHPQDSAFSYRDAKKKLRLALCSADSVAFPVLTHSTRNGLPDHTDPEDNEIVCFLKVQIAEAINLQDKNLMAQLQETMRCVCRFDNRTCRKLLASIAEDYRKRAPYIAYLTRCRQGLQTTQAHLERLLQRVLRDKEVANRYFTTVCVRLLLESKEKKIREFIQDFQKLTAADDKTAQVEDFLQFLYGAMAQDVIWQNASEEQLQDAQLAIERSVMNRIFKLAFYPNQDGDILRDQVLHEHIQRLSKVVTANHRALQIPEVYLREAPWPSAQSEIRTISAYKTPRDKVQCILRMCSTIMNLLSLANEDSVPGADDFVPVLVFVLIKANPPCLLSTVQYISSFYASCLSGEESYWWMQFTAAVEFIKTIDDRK
UniProt Q9UJY4: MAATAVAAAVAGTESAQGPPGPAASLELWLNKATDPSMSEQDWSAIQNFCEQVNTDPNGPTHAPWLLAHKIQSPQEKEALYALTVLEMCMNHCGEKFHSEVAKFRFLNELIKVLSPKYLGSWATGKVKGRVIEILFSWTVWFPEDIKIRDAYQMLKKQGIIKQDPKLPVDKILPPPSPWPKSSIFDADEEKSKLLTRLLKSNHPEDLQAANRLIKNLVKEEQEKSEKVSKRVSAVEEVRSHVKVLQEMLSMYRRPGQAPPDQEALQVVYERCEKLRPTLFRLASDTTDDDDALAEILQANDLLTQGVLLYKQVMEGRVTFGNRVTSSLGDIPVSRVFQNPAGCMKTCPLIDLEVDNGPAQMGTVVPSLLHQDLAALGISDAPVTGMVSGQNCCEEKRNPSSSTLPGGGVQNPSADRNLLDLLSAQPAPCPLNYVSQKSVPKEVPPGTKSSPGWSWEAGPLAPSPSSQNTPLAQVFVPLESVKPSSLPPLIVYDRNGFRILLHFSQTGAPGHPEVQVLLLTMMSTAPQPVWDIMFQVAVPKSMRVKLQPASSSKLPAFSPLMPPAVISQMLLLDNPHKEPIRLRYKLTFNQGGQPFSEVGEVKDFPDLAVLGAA
UniProt Q8N9F7: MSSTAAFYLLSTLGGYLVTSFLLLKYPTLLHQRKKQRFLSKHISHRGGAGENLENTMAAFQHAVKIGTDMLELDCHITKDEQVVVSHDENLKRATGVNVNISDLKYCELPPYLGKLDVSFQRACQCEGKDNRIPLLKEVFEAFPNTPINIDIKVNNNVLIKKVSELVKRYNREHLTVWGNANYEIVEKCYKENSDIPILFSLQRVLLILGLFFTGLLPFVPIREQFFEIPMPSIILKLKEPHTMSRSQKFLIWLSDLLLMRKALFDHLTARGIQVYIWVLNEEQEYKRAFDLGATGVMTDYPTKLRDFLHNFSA

What follows are targets tested with Cc1cc(ccc1-c1ccccc1)C(=O)N1CCCN(CC1)C(=O)CCl [compound 10] (assay: probe-labelled cysteine peptide fold change vs DMSO (competition) (log2 fold change); higher = less target engagement (more negative = stronger competition)). Conditions: 10 µM; THP-1; incubation time: 4 h.
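Note: competitive profiling in live THP-1 cells: cysteine peptides tagged with an iodoacetamide desthiobiotin (IA-DTB) probe, intensity after compound treatment relative to DMSO-treated cells.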

Row | Target | probe-labelled cysteine peptide fold change
1 | GEN1_Q17RS7_634_SEVESELSAIPDGFENIPEQLSCESER (UniProt Q17RS7) | -0.435
2 | GIT2_Q14161_34+35_GTFLCDECCSVHR (UniProt Q14161) | -0.0885
3 | GAPDH_P04406_152_IISNASCTTNCLAPLAK (UniProt P04406) | 0.0586
4 | GDE1_Q9NZC3_327_SYYESHLGSSYITDSMVEDCEPHF (UniProt Q9NZC3) | -0.379
5 | GEMIN4_P57678_317_LPSETIFVGCEFLHHLLR (UniProt P57678) | 0.0884
6 | GCN1_Q92616_2136_LGTPDEQLEMANCQAVILSVEDDTGHR (UniProt Q92616) | -0.0458
7 | GAN_Q9H2C0_415_IGCYAAMK (UniProt Q9H2C0) | -0.0133
8 | GCDH_Q92947_308_YGIAWGVLGASEFCLHTAR (UniProt Q92947) | -0.0327
9 | GCC2_Q8IWJ2_466_EQCENLQQEK (UniProt Q8IWJ2) | 0.214
10 | GK_P32189_220_QLCEFFGIPMEILPNVR (UniProt P32189) | 0.497
11 | GAPDHS_O14556_319_VPTPDVSVVDLTCR (UniProt O14556) | -0.281
12 | GFM1_Q96RP9_594_GFLDACEK (UniProt Q96RP9) | -0.119
13 | GCN1_Q92616_2255_LIGNESKGEHVPGFCLPK (UniProt Q92616) | -0.424
14 | GGPS1_O95749_205_SFCEDLTEGK (UniProt O95749) | -0.213
15 | GIT1_Q9Y2X7_576_KGVSASAVPFTPSSPLLSCSQEGSR (UniProt Q9Y2X7) | -0.316
16 | GBP5_Q96PP8_233_CFIFDLPAHQK (UniProt Q96PP8) | -0.207
17 | GDI2_P50395_202_TDDYLDQPCYETINR (UniProt P50395) | 0.172
18 | GEMIN5_Q8TEQ6_441_EGCLAFGTDDGK (UniProt Q8TEQ6) | -0.159
19 | GEMIN5_Q8TEQ6_1051_CYLGATCAYDAAK (UniProt Q8TEQ6) | 0.411
20 | GFI1_Q99684_155_GAGLGLFCEPAPEPGHPAALYGPK (UniProt Q99684) | -0.225

Row | Target | probe-labelled cysteine peptide fold change
21 | GART_P22102_941_GSNAHEQALETGVTVTGCTVHFVAEDVDAGQIILQEAVPVKR (UniProt P22102) | -0.0235
22 | GIGYF1_O75420_177_CGFEEGGAGPR (UniProt O75420) | -0.196
23 | GATD1_Q8NB37_216_HLVTGQNASSTVPAVQNLLFLCGSR (UniProt Q8NB37) | 0.175
24 | GARS_P41250_466+471_SCYDLSCHAR (UniProt P41250) | 0.126
25 | GFI1_Q99684_398+401_HTGFKPFGCDLCGK (UniProt Q99684) | -0.0472
26 | GEMIN5_Q8TEQ6_1421_NEPEVEAEQPLCSSQSQCK (UniProt Q8TEQ6) | 0.068
27 | GDI1_P31150_202_TDDYLDQPCLETVNR (UniProt P31150) | 0.0586
28 | GAPVD1_Q14C86_789_SECSSDFGGK (UniProt Q14C86) | -0.285
29 | GDI2_P50395_414_TYDATTHFETTCDDIK (UniProt P50395) | -0.0419
30 | GGA2_Q9UJY4_429_NLLDLLSAQPAPCPLNYVSQK (UniProt Q9UJY4) | -0.304
31 | GANAB_Q14697_41_TCEESSFCK (UniProt Q14697) | 0.0311
32 | GANAB_Q14697_41+47_TCEESSFCK (UniProt Q14697) | -0.0702
33 | GFPT1_Q06210_392_LILIACGTSYHAGVATR (UniProt Q06210) | 0.0456
34 | GCC1_Q96CN9_538_LSCEELEHQHQQEADDWKQELAR (UniProt Q96CN9) | -0.0143
35 | GBF1_Q92538_1543_TLWAHCWCPLLQGIACLCCDAR (UniProt Q92538) | -0.0638
36 | GAMT_Q14353_169_LLKPGGVLTYCNLTSWGELMK (UniProt Q14353) | 0.0267
37 | GALNT12_Q8IXK2_125_WNPLCK (UniProt Q8IXK2) | -0.11
38 | GDPD1_Q8N9F7_75_IGTDMLELDCHITK (UniProt Q8N9F7) | -0.053
39 | GATAD2B_Q8WXI9_444_ILCEQCMTSNQK (UniProt Q8WXI9) | 0.0815

Same assay, conditions: 50 µM; THP-1; incubation time: 4 h

Row | Target | probe-labelled cysteine peptide fold change
40 | GEN1_Q17RS7_634_SEVESELSAIPDGFENIPEQLSCESER (UniProt Q17RS7) | -0.524
41 | GIT2_Q14161_34+35_GTFLCDECCSVHR (UniProt Q14161) | 0.0411
42 | GAPDH_P04406_152_IISNASCTTNCLAPLAK (UniProt P04406) | -0.65
43 | GDE1_Q9NZC3_327_SYYESHLGSSYITDSMVEDCEPHF (UniProt Q9NZC3) | 0.107
44 | GEMIN4_P57678_317_LPSETIFVGCEFLHHLLR (UniProt P57678) | -0.175
45 | GCN1_Q92616_2136_LGTPDEQLEMANCQAVILSVEDDTGHR (UniProt Q92616) | 0.286
46 | GAN_Q9H2C0_415_IGCYAAMK (UniProt Q9H2C0) | 0.0685
47 | GCDH_Q92947_308_YGIAWGVLGASEFCLHTAR (UniProt Q92947) | 0.165
48 | GCC2_Q8IWJ2_466_EQCENLQQEK (UniProt Q8IWJ2) | 0.205
49 | GK_P32189_220_QLCEFFGIPMEILPNVR (UniProt P32189) | 0.472
50 | GAPDHS_O14556_319_VPTPDVSVVDLTCR (UniProt O14556) | -0.216
51 | GFM1_Q96RP9_594_GFLDACEK (UniProt Q96RP9) | -0.243
52 | GCN1_Q92616_2255_LIGNESKGEHVPGFCLPK (UniProt Q92616) | -0.728
53 | GGPS1_O95749_205_SFCEDLTEGK (UniProt O95749) | -0.233
54 | GIT1_Q9Y2X7_576_KGVSASAVPFTPSSPLLSCSQEGSR (UniProt Q9Y2X7) | -0.788
55 | GBP5_Q96PP8_233_CFIFDLPAHQK (UniProt Q96PP8) | -0.285
56 | GDI2_P50395_202_TDDYLDQPCYETINR (UniProt P50395) | 0.282
57 | GEMIN5_Q8TEQ6_441_EGCLAFGTDDGK (UniProt Q8TEQ6) | -0.222
58 | GEMIN5_Q8TEQ6_1051_CYLGATCAYDAAK (UniProt Q8TEQ6) | 0.197
59 | GFI1_Q99684_155_GAGLGLFCEPAPEPGHPAALYGPK (UniProt Q99684) | 1.62

Row | Target | probe-labelled cysteine peptide fold change
60 | GART_P22102_941_GSNAHEQALETGVTVTGCTVHFVAEDVDAGQIILQEAVPVKR (UniProt P22102) | -0.0732
61 | GIGYF1_O75420_177_CGFEEGGAGPR (UniProt O75420) | -0.348
62 | GATD1_Q8NB37_216_HLVTGQNASSTVPAVQNLLFLCGSR (UniProt Q8NB37) | 0.169
63 | GARS_P41250_466+471_SCYDLSCHAR (UniProt P41250) | -0.411
64 | GFI1_Q99684_398+401_HTGFKPFGCDLCGK (UniProt Q99684) | 0.201
65 | GEMIN5_Q8TEQ6_1421_NEPEVEAEQPLCSSQSQCK (UniProt Q8TEQ6) | -0.124
66 | GDI1_P31150_202_TDDYLDQPCLETVNR (UniProt P31150) | 0.0584
67 | GAPVD1_Q14C86_789_SECSSDFGGK (UniProt Q14C86) | -0.196
68 | GDI2_P50395_414_TYDATTHFETTCDDIK (UniProt P50395) | -0.0345
69 | GGA2_Q9UJY4_429_NLLDLLSAQPAPCPLNYVSQK (UniProt Q9UJY4) | -0.871
70 | GANAB_Q14697_41_TCEESSFCK (UniProt Q14697) | 0.225
71 | GANAB_Q14697_41+47_TCEESSFCK (UniProt Q14697) | -0.158
72 | GFPT1_Q06210_392_LILIACGTSYHAGVATR (UniProt Q06210) | 0.175
73 | GCC1_Q96CN9_538_LSCEELEHQHQQEADDWKQELAR (UniProt Q96CN9) | -0.0459
74 | GBF1_Q92538_1543_TLWAHCWCPLLQGIACLCCDAR (UniProt Q92538) | -0.0692
75 | GAMT_Q14353_169_LLKPGGVLTYCNLTSWGELMK (UniProt Q14353) | 0.321
76 | GALNT12_Q8IXK2_125_WNPLCK (UniProt Q8IXK2) | -0.0301
77 | GDPD1_Q8N9F7_75_IGTDMLELDCHITK (UniProt Q8N9F7) | -0.156
78 | GATAD2B_Q8WXI9_444_ILCEQCMTSNQK (UniProt Q8WXI9) | -0.214
